Data taken from patent US20240325490A1 (RESEARCH AND BUSINESS FOUNDATION SUNGKYUNKWAN UNIVERSITY, published 2024).
These are yes or no findings as the source states them, for the method shown. Some binding calls cover weakened binding; strength is not graded here.

Experiments:
[1] = biological target: P62 (P62/SQSTM1) adaptor protein (UniProt Q13501); experiment: fragment binding assay, figure legend (FIG. 6L)
[2] = biological target: P62 (P62/SQSTM1) adaptor protein (UniProt Q13501); experiment: fragment binding assay (FIG. 6L); method not described

binding [1]: binds
binding [2]: binds
B1: EBP1 280-394 amino acids fragment (protein, UniProt Q9UQ80 280-394, looked up)
chain: LRAFEDEKKARMGVVECAKHELLQPFNVLYEKEGEFVAQFKFTVLLMPNGPMRITSGPFEPDLYKSEMEVQDAELKALLQSSASRKTQKKKKKKASKTAENATSGETLEENEAGD
